Measurements reported in patent publication US20170042924A1, “MUSCLE ATROPHY INHIBITOR CONTAINING QUERCETIN GLYCOSIDE” (SUNTORY HOLDINGS LIMITED, priority 2014, published 2017).
For at least one compound, name, drawing or mass did not settle the structure.

How the values were obtained:
BALB/c male mice [1] = assay: Dexamethasone-induced muscle atrophy, administration in drinking water, gastrocnemius weight/body weight ratio; assay type: in vivo; details: DEX 10 mg/L in drinking water for seven days, compared to the control (tap water) group; FIG. 1
BALB/c male mice [2] = assay: Dexamethasone-induced muscle atrophy, forced oral administration test, gastrocnemius weight/body weight ratio; assay type: in vivo; details: DEX 10 mg/L in drinking water, compared to the control group; FIG. 3
Description: BALB/c male mice aged 7 weeks were habituated for one week, and then allowed to ingest 10 mg/L dexamethasone (DEX) in drinking water ad libitum. Next, 200 mg/kg quercetin glycoside (QG) and an equivalent amount of quercetin (Q) in terms of rutin were each suspended in milliQ water containing 0.5% carboxymethyl cellulose sodium salt, and the suspensions were each forcibly administered orally […] to the mice for five days (from Monday to Friday). Then, administration of 10 mg/L DEX in drinking water was started from Friday. In the next week, forced oral QG/Q administration was resumed (from Monday to Thursday) concurrently with DEX administration in drinking water, and the mice were dissected on Friday. Sample collection after the administration test, muscle atrophy evaluation based on gastrocnemius weight (GW)/body weight (BW) ratio, and gene expression level analysis in gastrocnemius tissue were performed according to the procedures described in Examples 1 and 2. The differences in average gene expression levels between the DEX group and each of the DEX+QG group and the DEX+Q group were analyzed by Dunnett's test, with p-values below 5% being considered significant.

C[C@@H]1C[C@H]2[C@@H]3CCC4=CC(=O)C=C[C@]4(C)[C@@]3(F)[C@@H](O)C[C@]2(C)[C@@]1(O)C(=O)CO [DEX, dexamethasone, reference compound]
GW/BW ratio (gastrocnemius weight divided by body weight) (BALB/c male mice [1]): significantly lowered
GW/BW ratio (gastrocnemius weight divided by body weight) (BALB/c male mice [2]): significantly lowered
